Results: patent US9175053B2 (BEN-GURION UNIVERSITY OF THE NEGEV RESEARCH AND DEVELOPMENT …, priority 2010, dated 2015)

Assay: general procedure: Fmoc solid-phase peptide synthesis; Rink amide; HBTU/DIEA; HATU/DIEA for first amino acid (Gly)
Conditions: whole synthesis, TFA salts

Cys-Ub(47-76)-N-methyl Cysteine
isolated yield: 25-30%
